Our source for the TEAD-luciferase reporter activity values is the supplement of paper PMC10735217.

For this test, the system named is HEK293A TEAD-LUC reporter. Description: TEAD-luciferase reporter activity (YAP activation), robust Z score vs plate; higher = stronger YAP/TEAD activation. Conditions: 24 h. Background: Reporter assays use an easily measured gene product as a stand-in for the process of interest.

The structures appear in SMILES notation. Structures can show the parent of a compound that is named as a salt. This is one part of the list. This data set is noisy: repeats of one test often differ as much as different tests do.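 In a drug-repurposing library screen, luminescence reads luciferase driven by eight TEAD-binding elements, stably integrated into human kidney-derived cells. Compounds scoring over five robust Z scores above the plate mean are called hits.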

Turning to `CC1(C)Oc2ccc(C#N)cc2[C@@H](OC2=NNC(=O)C3CC23)[C@@H]1O` (stereo partly specified), the TEAD-luciferase reporter activity is inactive: -0.148 (compound concentration: 200 nM), inactive: 0.228 (compound concentration: 2 uM) and inactive: 0.445 (compound concentration: 10 uM).

As to `CCOc1ncc(C)c2c1[C@@H](c1ccc(C#N)cc1OC)C(C(N)=O)=C(C)N2` [Finere], the TEAD-luciferase reporter activity (compound concentration: 200 nM) was inactive: -0.683, the TEAD-luciferase reporter activity (compound concentration: 2 uM) is inactive: -0.373 and the TEAD-luciferase reporter activity (compound concentration: 10 uM) is inactive: -0.134.

With `CP(=O)(O)C(C(=O)N/C=C/c1ccc(F)c(F)c1)c1csc2ccc(Cl)cc12` (stereo unspecified), the TEAD-luciferase reporter activity reads like this: (compound concentration: 200 nM) inactive: -2.51; (compound concentration: 2 uM) inactive: 0.721; (compound concentration: 10 uM) inactive: -1.31.

Take `Cc1ccc(S(=O)(=O)N2CCCC(C(=O)N3CCC(N4CCCC4=O)CC3)C2)cc1` (stereo unspecified): the TEAD-luciferase reporter activity (compound concentration: 200 nM) was inactive: 2.98 and the TEAD-luciferase reporter activity (compound concentration: 10 uM) was active: 20.

As to `CCCn1c(=O)c(CCCOC(=O)NC)nc2ccccc21` [Bamaquimast], the TEAD-luciferase reporter activity (compound concentration: 200 nM) was inactive: -1.13, the TEAD-luciferase reporter activity (compound concentration: 2 uM) is inactive: -0.702 and the TEAD-luciferase reporter activity (compound concentration: 10 uM) was inactive: 1.19.

For the molecule `CN(c1ccc(/C=C/C[C@H](NC(=O)c2c(Cl)cccc2Cl)C(=O)O)cc1)c1ncccn1`, the TEAD-luciferase reporter activity is inactive: -0.355 (compound concentration: 200 nM), inactive: -1.34 (compound concentration: 2 uM) and inactive: 0.446 (compound concentration: 10 uM).

For the molecule `CC(C)(C)NC(=O)N[C@H](C(=O)N1C[C@H]2[C@@H]([C@H]1C(=O)NC(CC1CCC1)C(=O)C(N)=O)C2(C)C)C(C)(C)C` (stereo partly specified) [Boceprevir], the TEAD-luciferase reporter activity is inactive: -1.65 (compound concentration: 200 nM), inactive: 0.709 (compound concentration: 2 uM) and inactive: -0.426 (compound concentration: 10 uM).

Turning to `CN(c1ccc(/C=C/C[C@H](NC(=O)C2CCCCC2)C(=O)O)cc1)c1ncccn1`, the TEAD-luciferase reporter activity by setting is: (compound concentration: 200 nM) inactive: 0.276; (compound concentration: 2 uM) inactive: 0.426; (compound concentration: 10 uM) inactive: -0.998.

`CCCOc1ccc(C(=O)OCCN(CC)CC)cc1N` [Proxymetacaine499-67-2]: the TEAD-luciferase reporter activity reads like this: (compound concentration: 200 nM) active: 6.14; (compound concentration: 10 uM) inactive: 0.668.

For the molecule `CCCOc1ccc(C(=O)OCCN(CC)CC)cc1N` [proparacaine HCl], the TEAD-luciferase reporter activity (compound concentration: 2 uM) is inactive: -1.08.

With `CC(C)CN(C[C@@H](O)[C@H](Cc1ccccc1)NC(=O)O[C@H]1CO[C@H]2OCC[C@H]21)S(=O)(=O)c1ccc2nc(NC3CCN(C4CCCC4)CC3)sc2c1`, the TEAD-luciferase reporter activity by setting is: (compound concentration: 200 nM) inactive: -0.885; (compound concentration: 2 uM) inactive: -0.677; (compound concentration: 10 uM) inactive: -0.44.

Regarding `O=S(=O)(c1ccccc1)c1c(N2CCNCC2)nn2c3c(cnc12)CNCC3`, the TEAD-luciferase reporter activity was inactive: -0.154 (compound concentration: 200 nM), inactive: -1.48 (compound concentration: 2 uM) and inactive: 1.13 (compound concentration: 10 uM).

On to `Cc1nc(NC/C=C\COc2cccc(CN3CCCCC3)c2)[nH]c(=O)c1C`, for which the TEAD-luciferase reporter activity was inactive: -0.839 (compound concentration: 200 nM), inactive: -1.05 (compound concentration: 2 uM) and inactive: 0.399 (compound concentration: 10 uM).

On to `Cc1c(-c2ccccc2)[n+](/N=N/[n+]2c(-c3ccccc3)c(C)n3ccccc32)c2ccccn12` [fazadinium bromide], for which the TEAD-luciferase reporter activity runs as follows: (compound concentration: 200 nM) inactive: -1.28; (compound concentration: 2 uM) inactive: 1.16; (compound concentration: 10 uM) inactive: -0.418.

Consider `COc1c(N2CCC(N)C(C)(C)C2)c(F)cc2c(=O)c(C(=O)O)cn(C3CC3)c12` (stereo unspecified), for which the TEAD-luciferase reporter activity by setting is: (compound concentration: 200 nM) inactive: -1.56; (compound concentration: 2 uM) inactive: -1.07; (compound concentration: 10 uM) inactive: -1.01.

As for `Cc1c(C)c2c(c(C)c1O)CCC(C)(C)O2`, the TEAD-luciferase reporter activity (compound concentration: 200 nM) was inactive: 0.676, the TEAD-luciferase reporter activity (compound concentration: 2 uM) was inactive: -1.25 and the TEAD-luciferase reporter activity (compound concentration: 10 uM) was inactive: -0.48.

Consider `CC1=CC(=O)C2=C(C)CC[C@@H]3[C@H](OC(=O)[C@H]3C)[C@@H]12` [Oligvon], for which the TEAD-luciferase reporter activity runs as follows: (compound concentration: 200 nM) inactive: 2.16; (compound concentration: 2 uM) inactive: -1.59; (compound concentration: 10 uM) inactive: 0.636.

For `CC(=O)N[C@H](CSSC[C@H](N)C(=O)O)C(=O)N[C@H](C)C(=O)N[C@H](CCCNC(=N)N)C(=O)N[C@H](CCCNC(=N)N)C(=O)N[C@H](CCCNC(=N)N)C(=O)N[C@H](C)C(=O)N[C@H](CCCNC(=N)N)C(N)=O`, the TEAD-luciferase reporter activity reads like this: (compound concentration: 200 nM) inactive: 2.94; (compound concentration: 2 uM) inactive: -0.531; (compound concentration: 10 uM) inactive: 1.64.

Regarding `COC(=O)c1cc(O)nc(O)n1`, the TEAD-luciferase reporter activity is inactive: 4.46 (compound concentration: 200 nM), inactive: 0.0805 (compound concentration: 2 uM) and inactive: 1.52 (compound concentration: 10 uM).

Regarding `CSCCC(NC(=O)C(CC(C)C)NC(=O)CNC(=O)C(Cc1ccccc1)NC(=O)C(N)Cc1ccccc1)C(N)=O` (stereo unspecified), the TEAD-luciferase reporter activity runs as follows: (compound concentration: 200 nM) inactive: -1.14; (compound concentration: 2 uM) inactive: -0.0156; (compound concentration: 10 uM) inactive: 3.19.

Turning to `CC1CN(c2cc3c(cc2F)c(=O)c(C(=O)O)cn3-c2ccc(F)cc2F)CCN1` (stereo unspecified) [temafloxacin], the TEAD-luciferase reporter activity is, setting by setting: (compound concentration: 200 nM) inactive: -0.992; (compound concentration: 2 uM) inactive: -0.504; (compound concentration: 10 uM) inactive: 3.91.

Take `CCOC(=O)Cc1cc(Cl)c(Oc2ccc(C(=O)NC(C)(C)C)cc2NS(=O)(=O)c2ccccc2OC)cc1F`: the TEAD-luciferase reporter activity (compound concentration: 200 nM) was inactive: -0.697, the TEAD-luciferase reporter activity (compound concentration: 2 uM) was inactive: -0.375 and the TEAD-luciferase reporter activity (compound concentration: 10 uM) was inactive: -0.51.

In the case of `CC(C(=O)OCCOCCN1CCN(C(c2ccccc2)c2ccc(Cl)cc2)CC1)c1cccc(C(=O)c2ccccc2)c1` (stereo unspecified) [fenclozine], the TEAD-luciferase reporter activity is inactive: -1.11 (compound concentration: 200 nM), inactive: -0.397 (compound concentration: 2 uM) and inactive: 0.591 (compound concentration: 10 uM).

With `COc1cccc(CN2C[Si](C)(C)O[Si](C)(C)C2)c1`, the TEAD-luciferase reporter activity was inactive: -1.38 (compound concentration: 200 nM), inactive: -1.04 (compound concentration: 2 uM) and inactive: -1.04 (compound concentration: 10 uM).

On to `Cc1c(-c2ccccc2)oc2ccc(OCCCCCCN3CCC(O)CC3)cc2c1=O`, for which the TEAD-luciferase reporter activity reads like this: (compound concentration: 200 nM) inactive: 2.6; (compound concentration: 2 uM) inactive: 0.757; (compound concentration: 10 uM) inactive: -0.0103.
